Results are given in words; binding and its absence hold for the method and conditions named. Some binding calls cover weakened binding; strength is not graded here.
Target: human formylpeptide receptor 2 (FPR2), residues 1-342 (human) (UniProt P25090)
Assay: cryo-EM structure; FPR2, DNGαi1, His8-Gβ1 and Gγ2 co-expressed in Sf9; complex formed on membranes with 0.5 μM WKYMVm and apyrase, purified in detergent (LMNG/CHS/digitonin; Ni-NTA, amylose, SEC), purified scFv16 added on the resin; nucleotide-free; 3.17 Å; both purified

The chains behind the UniProt entries cited, without tags or fusion partners. Residues count along the entry.
UniProt P25090, residues 1-342: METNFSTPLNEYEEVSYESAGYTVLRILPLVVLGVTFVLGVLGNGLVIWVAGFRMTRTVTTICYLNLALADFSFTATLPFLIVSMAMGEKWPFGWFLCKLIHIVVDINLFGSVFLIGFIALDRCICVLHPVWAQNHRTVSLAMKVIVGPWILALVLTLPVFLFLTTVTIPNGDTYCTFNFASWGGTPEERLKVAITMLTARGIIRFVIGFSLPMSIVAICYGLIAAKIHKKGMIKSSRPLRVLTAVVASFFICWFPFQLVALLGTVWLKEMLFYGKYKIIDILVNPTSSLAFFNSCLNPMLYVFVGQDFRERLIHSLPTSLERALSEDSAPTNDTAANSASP

WKYMVM (D-methionine at the last (6th) position; C-terminal amide (NH2)) [WKYMVm (Trp-Lys-Tyr-Met-Val-d-Met-NH2)]
binding: binds
